Test results: PubChem BioAssay AID2685 (National Center for Advancing Translational Sciences (NCATS), 2010)
Out of some 320,000 compounds screened, about 2,100 (0.66%) were called active. Inconclusive results, whose numbers are uncertain, are shown with a selection of clear calls. Calls follow the shape of the dose curve; as a rule, active = well fitted inhibition curve with a large enough effect in the signal ratio, with a control signal flat (not every such curve was filed as active); inconclusive = small, poorly fitted or top-dose-only effect, or effect the other way, or a change in a side signal; inactive = flat fitted curve, though single readings scatter; the % refers to the signal ratio. Potencies of inconclusive entries are doubtful fits and often do not repeat.

Experiment: qHTS Assay for Lipid Storage Modulators in Drosophila S3 Cells
Settings: BODIPY lipid droplet fluorescence, 18-24 h, cells fed with added oleic acid; lipid storage change, negative = inhibition: at 46.1 µM (top of the series) unless noted
Summary of the method: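 Drosophila S3 cells got compounds at several concentrations plus oleic acid (400 uM solution). Laser-scanning cytometry with 488 nm excitation read lipid droplets at 500-530 nm and cells at 575-640 nm. Percent activity was relative to 20 uM Triacsin C.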
% is scaled to controls: 0 for no effect and ±100 for the full control effect; potency is read from the fitted curve at half-maximal effect.

Question: With Cn1cnc([N+](=O)[O-])c1N=C(N)N as the molecule, how does the lipid storage change, negative = inhibition read?
Answer: inconclusive: 10.2%

Question: For O=C1NC(c2ccccc2)=CC(c2ccccc2)N1 (centres undefined), which lipid storage change, negative = inhibition is on record?
Answer: inconclusive: 5.41%

Question: With C=CCCC(=O)Nc1ccc(COC(=O)N2CCOCC2)cc1 as the molecule, how does the Potency read?
Answer: inconclusive: 0.92 µM [falling, full curve]

Question: Which lipid storage change, negative = inhibition does the source give for CC(=O)N1/C(=C/c2ccc(N(C)C)cc2)C(=O)c2ccccc21 here?
Answer: inconclusive: -25.5%

Question: Which lipid storage change, negative = inhibition does the source give for CCc1nc(NCc2ccc3c(c2)OCO3)c2oc3ccccc3c2n1 here?
Answer: inconclusive: 10.8%

Question: Which Potency does the source give for O=C1CCCC2=C1C(c1ccc(O)c(O)c1)c1c(ccc3ncccc13)N2 (centres undefined) here?
Answer: inconclusive: 29.1 µM [falling, single point]

Question: Which lipid storage change, negative = inhibition does the source give for COc1ccc(C2CCCN2C(=O)Nc2ccc(Cl)cc2)cc1OC (centres undefined) here?
Answer: inactive

Question: Which lipid storage change, negative = inhibition does the source give for CS(=O)(=O)Cc1ccc(C(=O)N(CCc2ccccc2)Cc2ccccc2)cc1 here?
Answer: inactive

Question: For O=C(CCl)N1N=C(c2ccco2)CC1c1ccco1 (centres undefined), which Potency is on record?
Answer: inconclusive: 29.1 µM [falling, single point]

Question: With COc1ccc(CN2C(=O)CC(C(=O)NCCc3ccc(S(N)(=O)=O)cc3)SC2=Nc2ccccc2)cc1 (centres undefined) as the molecule, how does the lipid storage change, negative = inhibition read?
Answer: inconclusive: -25% [at 9.22 µM]

Question: With CC(C)C[C@H](NC(=O)OC(C)(C)C)C(=O)N[C@@H](CO)[C@H](O)[C@@H]1C[C@@H]1C(=O)NC1CCCCC1 as the molecule, how does the lipid storage change, negative = inhibition read?
Answer: inconclusive: -10.7%

Question: With COc1ccccc1OCC(O)CO (centres undefined) as the molecule, how does the lipid storage change, negative = inhibition read?
Answer: inconclusive: -18.4%

Question: For COC(=O)c1[nH]c2ccc(F)cc2c1NC(=O)CCN1CC(C)OC(C)C1 (centres undefined), which lipid storage change, negative = inhibition is on record?
Answer: inconclusive: 35%

Question: With CCn1c(/C=C2\C(=O)N(C)c3ccccc32)nc2ccccc2c1=O as the molecule, how does the lipid storage change, negative = inhibition read?
Answer: inconclusive: 0.516%

Question: Which lipid storage change, negative = inhibition does the source give for c1ccc(C(c2nnnn2C2CCCC2)N2CCCCCC2)nc1 (centres undefined) here?
Answer: inconclusive: -15.8%

Question: Which lipid storage change, negative = inhibition does the source give for O=[N+]([O-])c1ccc(CN2CCN(c3ccc4ccccc4n3)CC2)cc1 here?
Answer: inconclusive: 11.8%

Question: For Cc1cc(=O)c(C(=O)O)nn1-c1ccccc1C(F)(F)F, which Potency is on record?
Answer: inconclusive: 6.51 µM [activator, single point]

Question: With Cc1cc(NC(=O)CN2CCN(c3cccc(Cl)c3)CC2)no1 as the molecule, how does the lipid storage change, negative = inhibition read?
Answer: inconclusive: 12.9%

Question: Which lipid storage change, negative = inhibition does the source give for Nc1c(-c2ccccc2)cnn1C1CCS(=O)(=O)C1 (centres undefined) here?
Answer: inconclusive: 2.45%

Question: With CCOc1ccccc1NC(=O)CCn1nc(C)c(S(=O)(=O)N2CCCCC2)c1C as the molecule, how does the lipid storage change, negative = inhibition read?
Answer: inconclusive: -14.6%

Question: Which lipid storage change, negative = inhibition does the source give for Cc1ccc(C(C)C)c(OCC(=O)NN=C2CCCC2)c1 here?
Answer: inconclusive: 11.4%

Question: For COc1ccccc1C(=O)NCC(=O)OCCCOC(=O)CNC(=O)c1ccccc1OC, which lipid storage change, negative = inhibition is on record?
Answer: inconclusive: -27.5%

Question: For COc1ccccc1N(Cc1ccccc1)S(=O)(=O)c1cc(C(=O)O)ccc1Cl, which Potency is on record?
Answer: inconclusive: 0.13 µM [falling, partial curve, poor fit]

Question: For COc1ccc(CNC(=O)c2cccc3c2C(=O)N(Cc2cccnc2)C3)cc1, which Potency is on record?
Answer: inconclusive: 1.64 µM [activator, partial curve]

Question: With COc1ccc(C(=O)NCc2ccco2)cc1S(=O)(=O)NC1CC1 as the molecule, how does the lipid storage change, negative = inhibition read?
Answer: inconclusive: 7.81%

Question: Which lipid storage change, negative = inhibition does the source give for CN(CC(=O)Nc1ccc(Cl)c(C(F)(F)F)c1)C(=O)CCCc1nc2ccccc2c(=O)[nH]1 here?
Answer: inconclusive: -53.5%

Question: With CN1CCN(C(=O)C2CCC(=O)N(Cc3cccc(C(F)(F)F)c3)C2)CC1 (centres undefined) as the molecule, how does the lipid storage change, negative = inhibition read?
Answer: inconclusive: -20%

Question: Which Potency does the source give for CC(=O)N1c2ccc(S(=O)(=O)N3CCCC(C(=O)Nc4cccc(Cl)c4)C3)cc2CC1C (centres undefined) here?
Answer: inconclusive: 6.51 µM [activator, single point]

Question: With Cc1cc(NS(=O)(=O)c2ccc(NC(=O)c3ccco3)cc2)no1 as the molecule, how does the Potency read?
Answer: inconclusive: 0.0046 µM [falling, full curve, poor fit]

Question: For CCCn1c(N)c(N(CCOC)C(=O)c2cccc(S(=O)(=O)N3CCCc4ccccc43)c2)c(=O)[nH]c1=O, which lipid storage change, negative = inhibition is on record?
Answer: inconclusive

Question: Which lipid storage change, negative = inhibition does the source give for COC(=O)CCN(c1ccccc1)S(=O)(=O)c1cc(-c2cc(C)no2)ccc1OC here?
Answer: inactive

Question: With O=S(=O)(c1ccc(Br)cc1Cl)N1CCN(CCO)CC1 as the molecule, how does the lipid storage change, negative = inhibition read?
Answer: inconclusive: -29.3%

Question: Which lipid storage change, negative = inhibition does the source give for CCCCCc1ccc(-c2cn(Cc3ccc(C)cc3)nn2)cc1 here?
Answer: inconclusive: 10.3%

Question: With O=Cc1cn(-c2ccc(F)cc2)c2ccccc12 as the molecule, how does the lipid storage change, negative = inhibition read?
Answer: inconclusive: 14.5%

Question: Which Potency does the source give for CSc1cccc(-n2c(C)cc(C(N)=O)c2C)c1 here?
Answer: inconclusive: 23.1 µM [falling, single point]

Question: Which lipid storage change, negative = inhibition does the source give for CCCc1cc(C(=O)Nc2nccs2)cs1 here?
Answer: inconclusive: 72.1%

Question: With NC(=O)c1ccccc1NC(=O)c1ccccc1S(=O)(=O)c1ccccc1[N+](=O)[O-] as the molecule, how does the lipid storage change, negative = inhibition read?
Answer: inconclusive: 24.4%

Question: With COc1ccc(-c2sc(Nc3ccccc3)n[n+]2C)c(C)c1C as the molecule, how does the lipid storage change, negative = inhibition read?
Answer: inconclusive: 17.4%

Question: Which Potency does the source give for CCCCCCCCC(=O)N/N=C/c1ccccn1 here?
Answer: inconclusive: 29.1 µM [falling, single point]

Question: With Cn1c(=O)[nH]c(=O)c2c1nc(N1CCN(CCO)CC1)n2Cc1ccccc1 as the molecule, how does the Potency read?
Answer: inconclusive: 0.731 µM [falling, full curve, poor fit]

Question: For COC(=O)c1cc(OC)c(OC)cc1NC(=O)CN1CCOCC1, which Potency is on record?
Answer: inconclusive: 18.4 µM [activator, partial curve]

Question: Which lipid storage change, negative = inhibition does the source give for Cc1ccccc1OCCC(=O)OCC(=O)NCCNC(=O)COC(=O)CCOc1ccccc1C here?
Answer: inconclusive

Question: With O=C(COc1cc([N+](=O)[O-])cc2cccnc12)NCCC1=CCCCC1 as the molecule, how does the Potency read?
Answer: inconclusive: 1.16 µM [falling, partial curve, poor fit]

Question: For COc1cc(OC)cc(C(=O)NCC2CCCN(C(=O)c3oc(C)cc3C)C2)c1 (centres undefined), which lipid storage change, negative = inhibition is on record?
Answer: inconclusive: -28.4%

Question: Which Potency does the source give for Cc1nc2cc(C(=O)OCC(=O)NC(C)C(C)C)ccc2n1-c1ccccc1 (centres undefined) here?
Answer: inconclusive: 1.16 µM [activator, full curve, poor fit]

Question: Which lipid storage change, negative = inhibition does the source give for COc1cc(OC)c(OC)cc1/C=N/NC(=S)NCCN1CCOCC1 here?
Answer: inconclusive: 12.9%

Question: For N#C/C(=C\c1cccc([N+](=O)[O-])c1)C(=O)NCc1ccc(Cl)cc1, which lipid storage change, negative = inhibition is on record?
Answer: inconclusive: -41.5%

Question: Which Potency does the source give for O=C(O/N=C1/CCCc2occc21)c1ccc(F)cc1 here?
Answer: inconclusive: 1.16 µM [cytotoxic, single point]

Question: With Cc1ccc(S(=O)(=O)NCCCn2ccnc2)cc1C(=O)NC(C)C as the molecule, how does the lipid storage change, negative = inhibition read?
Answer: inconclusive: 11.8%
